This passage reports activity change, negative = more quenching (active) results from PubChem BioAssay AID743402 (Broad Institute, 2014).

Molecules are shown by their SMILES. In all, about 1,200 compounds went through this assay and about 140 (12%) were called active.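 The calls were made as follows: active = fitted curve falls past -35% activity change at a dose under twice the top valid dose, in every replicate test; inconclusive = replicate tests disagree on the call; inactive = the rest, including activity in the opposite direction.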 This part holds few or none of the hits.

This test can be described thus: CFTR-F508del correctors, dose response, FRT cells, YFP quenching, cherry-pick (AID 743402).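 Also: compounds act as correctors raising surface CFTR-F508del before acute activation.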 Particulars: FRT CFTR-F508del YFP iodide quenching, 24 h, channel opened with forskolin and a potentiator; at 26 µM (top of the series) unless noted.
`COc1ccc(C(=O)c2cc([N+](=O)[O-])ccc2N2CCOCC2)cc1`: the activity change, negative = more quenching (active) is inactive: -5.42%. In the case of `CC(C)c1ccc(CN2CCN(S(=O)(=O)c3ccc(Cl)s3)CC2)cc1` it was inactive: 10%. In the case of `CC(=Nc1ccccc1O)c1sc2ccccc2c1O` it was inactive: 6.46%; in that of `COc1ccc2c3c(n(C)c2c1)[C@H](CO)NCC31CCN(Cc2cc(-c3ccccc3)on2)CC1`, inactive: -12.3%. In the case of `CC(C)Oc1ccc(S(=O)(=O)N2CCOCC2)cc1NC(=O)CCCSc1ccccc1` it was inactive: 6.46%. In the case of `COc1ccc(-c2cc(NC=O)c3ncc(-c4ccc(OC)c(OC)c4)n3c2)cc1`, the activity change, negative = more quenching (active) is inactive: -16.7%. Take `CC1(C)CCN2CCC(C)(C)c3c(O)ccc1c32`: the activity change, negative = more quenching (active) was inactive: -23.7%. The value for `COc1nc(-c2ccccc2)cc(-c2ccc3c(c2)OCO3)c1C#N` was inactive: 0%. In the case of `C[C@@H]1CN([C@H](C)CO)S(=O)(=O)c2ccc(C#Cc3cccc(F)c3)cc2O[C@@H]1CN(C)C(=O)NC1CCCCC1` it was inactive: 27.6%; in that of `CC1C2CCC(C2)C1OC(=O)c1ccccc1C(=O)O` (stereo not drawn), inactive: -6.25%; in that of `COc1ccc2cc(CN(CC3CCCO3)C(=S)Nc3ccccc3)c(=O)[nH]c2c1` (stereo not drawn), inactive: 12.9%. Turning to `COc1ccc(OC)c(-c2cc(-c3cccnc3)nc(N)c2C#N)c1`, the activity change, negative = more quenching (active) was inactive: -6.97%. The value for `COc1ccc(/C=N/NC(=S)Nc2ccccc2[N+](=O)[O-])cc1O` was inactive: -10.7%; that for `NS(=O)(=O)c1ccc2nc(NC(=O)c3ccc4c(c3)OCCO4)sc2c1` was inactive: 0%; that for `CCN(CC)CCn1c2c(c(SCC(=O)Nc3ccc(F)c(F)c3)nc1=O)CCC2` was inactive: 12.9%.

For `CN(C(=O)c1ccccc1OC1CCN(S(C)(=O)=O)CC1)C1CCOC1` (stereo not drawn), the activity change, negative = more quenching (active) is inactive: 6.46%.

For `CCOC(=O)c1cc2c(=Cc3ccc(N(C)C)cc3)c3ccccc3n2[n+]1C`, the activity change, negative = more quenching (active) was inactive: 1.61%.

As to `O=C1CCC(CCc2nc3ccccc3[nH]2)(c2ccccc2)C(=O)N1` (stereo not drawn), the activity change, negative = more quenching (active) is inactive: 6.67%. As for `COC(=O)c1ccsc1NC(=O)c1ccccc1`, the activity change, negative = more quenching (active) was inactive: 3.33%. In the case of `CC(C)c1nc2oc3c(NCCO)ncnc3c2c2c1COC(C)(C)C2` it was inactive: 0%; in that of `Cc1cc(C(=O)N/N=C/c2ccc(N(C)C)cc2)c2ccccc2n1`, inactive: 0%. `CC(=O)N(C)C[C@@H]1Oc2cc(C#Cc3ccc(F)cc3)ccc2S(=O)(=O)N([C@H](C)CO)C[C@@H]1C`: the activity change, negative = more quenching (active) was inactive: 3.57%. With `C[C@H](CO)N1C[C@H](C)[C@H](CN(C)Cc2ccc(Cl)c(Cl)c2)Oc2ccc(NC(=O)C3CCCCC3)cc2CC1=O`, the activity change, negative = more quenching (active) was inactive: 13.8%. For `O=C(N/N=C\c1c(O)ccc2ccccc12)c1cncc(Br)c1`, the activity change, negative = more quenching (active) was inactive: -33.3%. The value for `CN(C)CCCN(C(=O)c1ccco1)c1nc(-c2ccc(Cl)cc2)cs1` was inactive: -3.85%. In the case of `O=C(NC1CCCCC1)c1cc(C2CC2)nn1-c1ccccc1` it was inactive: 25.8%. Consider `CCOC(=O)c1nc(C)sc1-c1ccnn1S(=O)(=O)c1ccccc1C(F)(F)F`, for which the activity change, negative = more quenching (active) is inactive: 12.9%. `COc1ccc(CC(=O)NC(c2ccccc2)c2ccc(C)cc2)c(OC)c1` (stereo not drawn): the activity change, negative = more quenching (active) was inactive: 18.8%. As to `CCCCc1nc(Cl)c(CO)n1Cc1ccc(-c2ccccc2-c2nn[nH]n2)cc1`, the activity change, negative = more quenching (active) was inactive: 0%. Consider `O=C(NCCC1CCCCN1S(=O)(=O)c1cccs1)C(=O)Nc1ccc(F)cc1F` (stereo not drawn), for which the activity change, negative = more quenching (active) was inactive: -6.67%. For the compound `Cn1cnc2nc[nH]c2c1=S`, the activity change, negative = more quenching (active) is inactive: 3.85%.

With `c1ccc(-c2csc(NC3=NCCCCC3)n2)cc1`, the activity change, negative = more quenching (active) is inactive: 17.9%. Take `COc1ccc(COc2cc(-c3cccc(OC)c3)nc3ccc(NC(=O)c4ccc(OC)cc4)cc23)cc1`: the activity change, negative = more quenching (active) was inactive: -3.33%.

As to `O=C(NCCOc1ccccc1)c1cc([N+](=O)[O-])ccc1N1CCOCC1`, the activity change, negative = more quenching (active) is inactive: 9.38%. Take `CC(=O)Nc1ccc(-c2csc(NC(=O)CN3C(=O)NC4(CCCC4)C3=O)n2)cc1`: the activity change, negative = more quenching (active) is inactive: 6.67%. The value for `N#CC1=C(N)Oc2c(ccc3cccnc23)C1c1ccccc1` (stereo not drawn) was inactive: 6.46%. The value for `Cc1ccc(-c2ccc3c(c2)O[C@H](CN(C)C(=O)Nc2ccc(F)cc2)[C@@H](C)CN([C@@H](C)CO)S3(=O)=O)cc1` was inactive: 17.1%; that for `Cc1cc(C)nc(N(C#N)Cc2cccc(Cl)c2)n1` was inactive: 0%. For `CCSC(=O)N1c2ccc(OC)cc2C=CC1C#N` (stereo not drawn), the activity change, negative = more quenching (active) is inactive: -3.12%. Consider `COc1ccccc1NS(=O)(=O)c1ccc(C)c(C(=O)Nc2cc(C)on2)c1`, for which the activity change, negative = more quenching (active) is inactive: 18.8%. In the case of `O=C(c1ccc2ccccc2c1)N1CCN(Cc2ccccc2)CC1` it was inactive: 9.79%. In the case of `CNS(=O)(=O)c1cccc(C(=O)OCC(=O)c2cc(C)n(CC3CCCO3)c2C)c1` (stereo not drawn) it was inactive: 16.4%; in that of `O=C(O)COC(=O)Cc1ccccc1Nc1c(Cl)cccc1Cl`, inactive: 3.12%.
